Hit rate of the full screen: of about 53,000 sequences, about 3,700 (7%) were called active.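 How the source made its calls: active means gene knockdowns whose robust z-score for IL-1 alpha signal is at least 2 or at most -2, so actives lie on both sides; inactive means the rest.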 The list shows a part of the results.

Data on 106 sequences can be found in PubChem BioAssay AID1508600 (Functional Genomics Laboratory (NCATS/FGL), 2020).

The nature of this assay: Components of the Cytosolic LPS Sensing Pathway: Gene Identification via Genome-wide siRNA Screen.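 Further: robust z of the log signal after scaling to non-targeting control siRNA wells of the plate.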 To be noted: RAW264.7 macrophages, IL-1a HTRF, actives lie on both sides, screened at 100 nM (by protocol), cells primed 5 h with Pam3CSK4 first. The essentials:
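Mouse macrophage line RAW264.7 is transfected with siRNA (100 nM final), grown 48h, primed with TLR ligand Pam3CSK4 5 h and given intracellular LipidA 24 h. IL-1a in supernatant is read by HTRF and viability by luminescence.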
A general note: In TR-FRET formats the signal depends on donor and acceptor labels being close together.
On to CCCUAGGGUGAUGAAGCAUTT against Ckmt2, for which the z-score is inactive: -0.984.

For CCGAAUUUCCAAAAAUGCATT against Foxd3, the z-score was inactive: -0.244.

Consider CCUAAACGUGCACAUUUUATT against Ifitm10, for which the z-score is inactive: -0.347.

On to GGUUACCUCCACCAGAUCATT against Avpi1, for which the z-score is inactive: -0.326.

On to CCAUAACCAACGUGUUCGUTT against Adrb3, for which the z-score was inactive: -0.273.

For the sequence GCUAACAAAUGUCAGCAUGTT against Popdc3, the z-score was inactive: 0.319.

Take GCGUAUCUGAUUGACAGAGTT against Kctd2: the z-score is inactive: 1.62.

GCCAAAGAUUAUCGAGUGUTT against Klhdc8a: the z-score is inactive: -0.594.

GGAUGACUUUGAGUGUGUGTT against Ciao1: the z-score was inactive: -0.55.

As for CCUUAAAACUUUCUGGUUGTT against Akirin1, the z-score was inactive: -0.449.

Consider GCUAUUGAGUCGUGAGACUTT against Apoc3, for which the z-score was inactive: -0.869.

Regarding GGUUUGACUAACUUUCCUUTT against Fbxl15, the z-score is inactive: 0.198.

For the sequence GCUAUGAAGCAAUUGUGGATT against Fasn, the z-score is inactive: -0.527.

Take GCUCAAAAAACCGAAAUGATT against Cd274: the z-score was inactive: -1.03.

For GGAGAAGAAACUGAACCUGTT against Ppan, the z-score is inactive: -0.835.

With “CCUAUGUAUGUCAACAUACTT against 1700028P14Rik”, the z-score is inactive: -0.13.

With GGCUGAAGUUCAUGAUGGCTT against Cd209d, the z-score was inactive: 1.7.

As for GCACGAUUUAGACACCAAGTT against Mtif3, the z-score was inactive: 0.195.

Regarding GGAGGAGAUCGUGAUCUGCTT against Ubqln4, the z-score is inactive: 1.2.

As for CCAUUAGGAUGACCUCCAUTT against Slc38a3, the z-score was inactive: -0.698.

In the case of GUGGAUUAGGGAAUUUCAUTT against Mrgprb1, the z-score was inactive: 1.84.

As to GGAGAUGCGAGUACAACUGTT against Ermn, the z-score is inactive: 0.479.

Take GGUCAAGCAAGUGUUGGUUTT against Gart: the z-score was inactive: -0.0147.

GGUACAUCUAUUUCUUGUUTT against Ncam2: the z-score was inactive: -1.2.

Take GGCAACUUGGGAGUUUCACTT against Kcnab1: the z-score was inactive: 1.41.

Take GGUACACAGCAGUGGUCAUTT against Drd3: the z-score was inactive: -0.707.

As to GGAAACAAAAAGAAUGCUGTT against Apex1, the z-score is inactive: 0.697.

For the sequence GGGUGACGAUAUCGAAAUGTT against Vstm2b, the z-score is inactive: -1.59.

CCUUCAACUCCUCACUUCCTT against H2-D1: the z-score was inactive: 0.493.

Turning to GGUUGUUAGAGGUAAUUUGTT against Zfp128, the z-score is inactive: 0.484.

As for GGUCGAGACUCCAUCAUAATT against Wdr48, the z-score was inactive: -1.46.

For GGAACAGAUAAAGAGGGAATT against Zfp326, the z-score was inactive: -0.735.

Consider GGCCCACGUCCUGUACAUUTT against Tdrd1, for which the z-score was active: 3.38.

As for “GCUCUAGUUCUGUAAAGUGTT against D630004N19Rik”, the z-score was inactive: -0.858.

CCGGAAAAUGCUACUGAAATT against Pcdhb10: the z-score was inactive: -0.662.

With GGGUUAUAGGUGUGUGUGCTT against Gemin6, the z-score is inactive: -0.389.

As for GGCAUUCUCCACGUGCUCUTT against Olfr273, the z-score was inactive: -1.35.

Regarding GGGCUCGAAUCCAUCACAGTT against Pcdhb6, the z-score is inactive: 0.0695.

“CGUGUAAAAGCCGGAUUGATT against 1500015L24Rik”: the z-score is inactive: -0.00617.

GGAAGUCUCAGACCACAACTT against Ech1: the z-score was inactive: -0.581.

Turning to GCAUUCUGAAGCUUCCAUCTT against Olfr1112, the z-score is inactive: 0.577.

In the case of GGACUUGACUAGACUUUCUTT against Cops7b, the z-score was inactive: 0.157.

With GGAAAUGUUAUCUUGGAAUTT against Zfand1, the z-score was inactive: 0.623.

On to GCACGUACUGUUCUAGAAGTT against Kcng4, for which the z-score was inactive: 1.48.

Consider CCUAACCAUCGACUUCUUCTT against Wfs1, for which the z-score was inactive: -0.189.

As to CGAAAUUGCUGACUCAGAATT against Arl6ip6, the z-score was inactive: 0.549.

In the case of GGCUAAAAAUAACAUCACCTT against Gabra2, the z-score was inactive: -0.164.

For GGAUUUUGCUGUUUUGGAATT against Dsc1, the z-score was inactive: 0.41.

For the sequence GCCGCUUCCAUUUUCUAUATT against Hic1, the z-score is inactive: 0.844.

Consider GGAAGAACCCAGCAAUGUCTT against Lzts2, for which the z-score is inactive: 0.0445.

In the case of GCCAUCUACGUGUCAUAGCTT against Siah1b, the z-score is inactive: 0.345.

For GCUAUAAAAAGAGCUCCGCTT against Cox8b, the z-score was inactive: 0.554.

Regarding GGCCGCUUUUAUUUAUAAUTT against Taf2, the z-score is inactive: -0.637.

Regarding CCCAAUAGUUUCUACUACUTT against Mkks, the z-score is inactive: -0.756.

On to GCAUCGGCUAGUUCAGCCATT against Trim67, for which the z-score is inactive: 0.498.

Regarding “GGAGCACAGUCUCAUGAAUTT against A130014H13Rik”, the z-score was inactive: -1.44.

As to GGUGACGAUACAGAAAGAGTT against Zfp523, the z-score is inactive: -1.47.

In the case of GGUUGACGCGCAACAAAAUTT against Gp5, the z-score was inactive: -1.41.

As to GGCAAUCCAGUUAUCCCAGTT against Prl4a1, the z-score was inactive: -1.08.

On to GGAGCUAGCUGAGAUUUUCTT against Tnnc2, for which the z-score is inactive: 0.68.

Consider GGAUACCUCAGUGACUACGTT against Scrt1, for which the z-score was inactive: 0.418.

Consider GGACAAUGGGAACAUGUAATT against Rnf185, for which the z-score is inactive: 0.858.

For GCUGCCAAUGAACAAACCATT against Prr27, the z-score was inactive: -0.757.

With GGGCUUAAGGAAUAAACCATT against Phtf2, the z-score was inactive: -0.317.

For CCAUGGGAUAUGAUUUACATT against Phf11a, the z-score was active: 3.49.

On to GGAAUGCUGAAGAAUUUUGTT against Ssu2, for which the z-score is inactive: 0.439.

For the sequence GCAACAGGUUCGUGUAACCTT against Cavin4, the z-score is inactive: 0.079.

With GCUAUAAAGGUGGUAACACTT against Col7a1, the z-score was inactive: 0.078.

With GCUAGAAGACAAUUACCUGTT against Fam160a2, the z-score was inactive: 0.688.

GGAUUGUCAAUUCUUCCCUTT against Clca4a: the z-score was inactive: -1.15.

In the case of CUUACAGCCCUUAUUGGAGTT against Olfr1205, the z-score was inactive: 0.31.

Take GGCUAUAGUAGGUCUUUCATT against Arhgap1: the z-score was inactive: 0.214.

In the case of CCAUUCCUUAAAAGAGCAUTT against Lce1g, the z-score was inactive: 1.07.

In the case of GGAAGUGUAUGAUCUCAUGTT against Tyro3, the z-score is inactive: 0.495.

As to CGUACAUCAGAAUGUUAAUTT against Fkbp4, the z-score is inactive: 1.46.

With GGGACAUGAGUUUUAAAAUTT against Dazl, the z-score is inactive: -0.736.

Turning to GGUACAUUAACUGACUUGGTT against Sspo, the z-score was inactive: -0.00729.

Regarding GGACUAUCCAACCUCCUAGTT against Cd47, the z-score is inactive: -1.33.

Consider GCAAUAUGCGGAUUUUACCTT against Mtbp, for which the z-score was inactive: -0.162.

In the case of GGGACCUAAUCAAUUGUUGTT against Fbxo3, the z-score was inactive: 0.441.

Consider “GGAGUGUUCUAGGACUAAGTT against D630003M21Rik”, for which the z-score was inactive: 1.27.

As to GGAGAUAACACCGUUACUUTT against Olfr769, the z-score was inactive: 0.766.

In the case of GGUUCAAGAACUUAAGACATT against Cenpe, the z-score is inactive: 0.589.

Turning to GGCAUGGAAGGCUAAACAGTT against Slc25a17, the z-score was inactive: -1.98.

With GGUGUCCACUUAAUUCUGATT against Mmp19, the z-score is inactive: 0.993.

Turning to GGGUUGCUACAAUCAUUGUTT against Scara3, the z-score was inactive: 0.387.

For the sequence CCCAUCUCACUAUUUAAUATT against Lrrc3b, the z-score is inactive: -1.23.

For GCUACAAAGAGUAAAACUGTT against Zfp251, the z-score was inactive: 1.01.

Take GGAACUCAUUAUGAUCUCCTT against Sac3d1: the z-score is inactive: 0.785.

Turning to GGCAAUGACGAAAUAACCCTT against Il10rb, the z-score was inactive: -0.292.

Turning to GGUAGCAGUGAUAGACACATT against Zfyve1, the z-score was inactive: -0.187.

Take CCGCUUACAUCGACUUUGCTT against Tpi1: the z-score is inactive: -0.351.

With GCUACCAAAUUCUUUCAGUTT against Prpf8, the z-score is inactive: 0.518.

As to GUUCUUUUUCUUCGGUUCCTT against Olfr1020, the z-score is inactive: 0.769.

In the case of GGCAAAGUUUAUGAAAUCCTT against Lipg, the z-score was inactive: -0.517.

On to GGGUUAAGGAACUUUAUGUTT against Cnnm4, for which the z-score is inactive: -1.05.

As to GCCUGAAUCACAUGACUUCTT against Irgm2, the z-score is inactive: -1.14.

In the case of GGAGAUUGUGACUGCUUUATT against Sarm1, the z-score was inactive: 1.54.

In the case of GGAGGAGCUGAAUGAAAACTT against Taok1, the z-score is inactive: 0.359.

Regarding CCUUAUCCAGUCACUUUGGTT against Gabra5, the z-score was inactive: -0.47.

With GGUACAGGUUCCUGUGAAUTT against H2ap, the z-score is inactive: 1.34.

On to GCAAUAGUAUGGUAAGUUATT against Dennd4a, for which the z-score is inactive: -0.288.

In the case of GGGCAAACCCAAGACCUUATT against Sgms2, the z-score was inactive: -0.0749.

Consider GGAAAAUGGAGCUGUGCUCTT against Prelid3a, for which the z-score was inactive: 0.298.

GCCACUUCCGGUCAACUAUTT against Cog1: the z-score was inactive: 0.801.

Turning to GCGGUAUGGCAUGGUACAUTT against LTO1, the z-score was inactive: -0.855.
